Measurements: article PMC9260212
No constants are given. Whether binding was seen depends on the method and setting. For part of these data: Binding seen in cells or lysates may run through a third protein. Some results given as binding are weak or reduced against the parent protein; the word gives no strength.

By UniProt entry, the sequences of proteins in these tests, tags left out. Where a name states a change or a piece, a line headed by the entry shows the natural chain unless it says otherwise.
UniProt Q00613: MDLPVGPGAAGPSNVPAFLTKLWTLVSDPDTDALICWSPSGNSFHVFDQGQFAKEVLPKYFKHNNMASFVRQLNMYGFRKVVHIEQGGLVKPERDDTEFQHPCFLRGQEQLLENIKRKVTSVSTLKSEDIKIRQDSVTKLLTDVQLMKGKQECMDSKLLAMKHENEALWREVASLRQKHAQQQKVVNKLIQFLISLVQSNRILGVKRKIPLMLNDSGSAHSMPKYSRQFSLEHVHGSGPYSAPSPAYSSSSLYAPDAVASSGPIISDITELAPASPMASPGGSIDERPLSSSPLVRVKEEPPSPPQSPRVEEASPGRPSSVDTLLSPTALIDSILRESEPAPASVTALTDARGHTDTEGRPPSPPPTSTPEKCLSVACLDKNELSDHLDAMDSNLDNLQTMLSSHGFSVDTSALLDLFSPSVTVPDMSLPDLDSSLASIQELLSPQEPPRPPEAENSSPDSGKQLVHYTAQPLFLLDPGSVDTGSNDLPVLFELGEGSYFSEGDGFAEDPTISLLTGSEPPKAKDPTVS
UniProt P38532: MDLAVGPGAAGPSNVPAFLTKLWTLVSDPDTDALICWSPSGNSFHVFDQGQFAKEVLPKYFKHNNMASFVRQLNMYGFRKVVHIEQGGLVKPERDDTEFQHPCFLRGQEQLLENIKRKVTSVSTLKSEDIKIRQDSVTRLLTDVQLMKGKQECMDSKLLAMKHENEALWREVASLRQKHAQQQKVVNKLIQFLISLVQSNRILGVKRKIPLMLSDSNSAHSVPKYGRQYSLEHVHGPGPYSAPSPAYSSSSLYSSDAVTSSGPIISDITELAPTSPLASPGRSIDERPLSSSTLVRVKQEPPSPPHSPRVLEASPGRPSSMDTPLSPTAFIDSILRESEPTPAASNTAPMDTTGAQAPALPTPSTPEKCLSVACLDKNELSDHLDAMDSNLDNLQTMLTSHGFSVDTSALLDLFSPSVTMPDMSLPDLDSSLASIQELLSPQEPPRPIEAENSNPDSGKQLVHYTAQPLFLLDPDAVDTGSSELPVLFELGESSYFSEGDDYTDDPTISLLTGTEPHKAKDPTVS
UniProt O00429: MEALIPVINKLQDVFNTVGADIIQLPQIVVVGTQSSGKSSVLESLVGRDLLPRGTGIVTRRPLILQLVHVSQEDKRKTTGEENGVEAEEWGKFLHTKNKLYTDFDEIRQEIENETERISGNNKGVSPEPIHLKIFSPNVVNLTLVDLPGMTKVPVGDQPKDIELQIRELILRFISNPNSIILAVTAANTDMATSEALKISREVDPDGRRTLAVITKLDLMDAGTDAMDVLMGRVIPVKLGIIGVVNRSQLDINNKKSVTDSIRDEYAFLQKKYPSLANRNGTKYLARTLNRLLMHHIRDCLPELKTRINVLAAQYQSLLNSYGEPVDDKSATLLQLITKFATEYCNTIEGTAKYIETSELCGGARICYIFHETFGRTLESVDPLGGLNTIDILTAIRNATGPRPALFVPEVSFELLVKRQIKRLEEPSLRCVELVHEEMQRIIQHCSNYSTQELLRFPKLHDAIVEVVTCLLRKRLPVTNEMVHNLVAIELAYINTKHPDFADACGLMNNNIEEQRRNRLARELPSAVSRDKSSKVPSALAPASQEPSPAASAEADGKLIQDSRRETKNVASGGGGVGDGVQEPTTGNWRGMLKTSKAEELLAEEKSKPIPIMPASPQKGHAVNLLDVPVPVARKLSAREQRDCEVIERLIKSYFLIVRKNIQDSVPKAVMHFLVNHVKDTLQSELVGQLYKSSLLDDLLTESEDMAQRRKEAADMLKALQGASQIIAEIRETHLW
UniProt Q8K1M6: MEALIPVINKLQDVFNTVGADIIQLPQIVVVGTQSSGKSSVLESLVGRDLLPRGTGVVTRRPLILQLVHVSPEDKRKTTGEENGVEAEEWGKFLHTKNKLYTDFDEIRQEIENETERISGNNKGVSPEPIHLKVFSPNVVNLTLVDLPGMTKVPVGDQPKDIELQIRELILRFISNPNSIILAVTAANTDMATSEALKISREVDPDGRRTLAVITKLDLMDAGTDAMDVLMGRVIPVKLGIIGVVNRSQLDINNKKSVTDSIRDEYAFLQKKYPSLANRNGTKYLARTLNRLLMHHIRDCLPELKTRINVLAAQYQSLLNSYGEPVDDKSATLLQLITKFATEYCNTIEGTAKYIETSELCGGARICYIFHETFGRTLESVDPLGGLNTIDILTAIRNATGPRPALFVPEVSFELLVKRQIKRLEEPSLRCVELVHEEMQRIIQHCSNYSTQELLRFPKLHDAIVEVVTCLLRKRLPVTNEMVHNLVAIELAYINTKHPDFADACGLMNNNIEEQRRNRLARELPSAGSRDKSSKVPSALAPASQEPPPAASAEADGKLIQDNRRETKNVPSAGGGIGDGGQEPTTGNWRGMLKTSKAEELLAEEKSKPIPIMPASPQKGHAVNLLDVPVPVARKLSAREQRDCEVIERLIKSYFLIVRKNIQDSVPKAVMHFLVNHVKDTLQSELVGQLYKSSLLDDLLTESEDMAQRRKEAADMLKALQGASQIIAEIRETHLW

How the values were obtained:
[1] = molecular target: recombinant GST-HSF1 (UniProt Q00613); test: pull-down; purified His-Drp1 and recombinant GST-HSF1 (500 ng each) mixed in HEPES buffer 1 h at RT; HSF1 antibody overnight at 4°C, then protein A/G beads 1 h; WB (called GST pulldown in the results); both purified
[2] = molecular target: heat shock transcription factor 1 (HSF1), endogenous in HdhQ7/HdhQ111 striatal cells (mouse (endogenous in HdhQ7/HdhQ111 striatal cells)) (UniProt P38532); test: co-IP; total cell lysates in HEPES buffer (20 mM HEPES pH 7.2, 50 mM NaCl, 0.5% Triton X-100); 1 mg protein with anti-HSF1 antibody or IgG overnight at 4°C, protein A/G beads 1 h; immunoblot; HdhQ7/HdhQ111 cells, patient and control fibroblasts; in one panel HdhQ111 cells treated with TAT, DH1 or DH2 (1 μM, 3 days)
[3] = molecular target: heat shock transcription factor 1 (HSF1), endogenous in human fibroblasts (human (endogenous in fibroblasts)) (UniProt Q00613); test: as above

Question: For “recombinant His-Drp1 (from UniProt O00429 1-736)”, which binding [1] is on record?
Answer: binds

Question: With “dynamin-related protein 1 (Drp1), endogenous in HdhQ7/HdhQ111 striatal cells (from UniProt Q8K1M6 1-736)” as the substance, how does the binding [2] read?
Answer: binds

Question: How did the binding [3] turn out when “dynamin-related protein 1 (Drp1), endogenous in human fibroblasts (from UniProt O00429-1 1-736)” was run?
Answer: binds
